Measurements reported in PubChem BioAssay AID1508597 (Cure First, 2020)

- Assay: 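Knock-downs altering ovarian cancer cell survival with or without PARP inhibitor rucaparib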 (primary screen)
- System: human ovarian carcinoma lines grown from tumours: OCI-P5x (papillary serous) and OCI-C5x (clear cell)
- Reagent: siRNA pool against human genes, 1.25 pmol siRNA per well
- Duration: 72 h or 96 h, depending on the cell culture
- Challenge: rucaparib 20 µM (about IC30) or vehicle, present until read-out
- Rucaparib or vehicle: Vehicle
- Cell line: OCI-P5x (serous)
- Measured: 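Luminescent ATP-based viability assay read 72 or 96 h after transfection, depending on culture, given as normalised percent viability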
- Scale: viability, normalised: higher = more viable cells remaining
- Active means: 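Active when normalised viability falls below 80 percent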
- Calls: active = viability under 80%; inactive = viability 80% or more
Shown is an unselected part of the about 2,100 reagents, in one setting of the screen. 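Calls flag viability under 80% in either arm, not effects specific to rucaparib; the reference for percent is not stated.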 Unmarked entries are inactive. Reagent sequences are not shown. Not stated in the record: the 100% reference.

BRD9 (GeneID 65980), technical replicate 1 → viability, normalised (%) = 76 (active)
BRD9 (GeneID 65980), technical replicate 2 → viability, normalised (%) = 68.6 (active)
BRD9 (GeneID 65980), technical replicate 3 → viability, normalised (%) = 89.8
EP400 (GeneID 57634), technical replicate 1 → viability, normalised (%) = 57.1 (active)
EP400 (GeneID 57634), technical replicate 2 → viability, normalised (%) = 71.8 (active)
EP400 (GeneID 57634), technical replicate 3 → viability, normalised (%) = 62.7 (active)

Sorted by “viability, normalised (%)” (lowest first): some entries from above
EP400 (GeneID 57634), technical replicate 1 → viability, normalised (%) = 57.1 (active)
EP400 (GeneID 57634), technical replicate 2 → viability, normalised (%) = 71.8 (active)

The listing continues:
PI4KA (GeneID 5297), technical replicate 1 → viability, normalised (%) = 107
PI4KA (GeneID 5297), technical replicate 2 → viability, normalised (%) = 122
PI4KA (GeneID 5297), technical replicate 3 → viability, normalised (%) = 113
EIF4A1 (GeneID 1973), technical replicate 1 → viability, normalised (%) = 47.5 (active)
EIF4A1 (GeneID 1973), technical replicate 2 → viability, normalised (%) = 56.1 (active)
EIF4A1 (GeneID 1973), technical replicate 3 → viability, normalised (%) = 68.1 (active)
